# Results reported in patent publication US20180320217A1, “METHODS FOR SAMPLING AND MEASURING ORAL LAVAGE PROTEINS” (The Procter & Gamble Company, priority 2017, published 2018).
# System: peptides in gingival brush samples
# Assay: Protein and peptide profiling of gingival brush samples (LC-MS/MS), TABLE 23
# Type: in vivo, human
# Conditions: peptide abundance, gingival brush samples; for Mean Cntl Bsl / Mean Cntl Wk3: control regimen; for Mean Cntl Bsl / Mean TrtBsl: baseline; for Mean Cntl Wk3 / Mean TrtWk3: week 3; for Mean TrtBsl / Mean TrtWk3: treatment regimen
Molecule,Mean Cntl Bsl,Mean Cntl Wk3,Mean TrtBsl,Mean TrtWk3
"GMDS_HUMAN (protein, UniProt O60547 2-372, looked up) GDP-mannose 4,6 dehydratase: AHAPARCPSARGSGDGEMGKPRNVALITGITGQDGSYLAEFLLEKGYEVHGIVRRSSSFNTGRIEHLYKNPQAHIEGNMKLHYGDLTDSTCLVKIINEVKPTEIYNLGAQSHVKISFDLAEYTADVDGVGTLRLLDAVKTCGLINSVKFYQASTSELYGKVQEIPQKETTPFYPRSPYGAAKLYAYWIVVNFREAYNLFAVNGILFNHESPRRGANFVTRKISRSVAKIYLGQLECFSLGNLDAKRDWGHAKDYVEAMWLMLQNDEPEDFVIATGEVHSVREFVEKSFLHIGKTIVWEGKNENEVGRCKETGKVHVTVDLKYYRPTEVDFLQGDCTKAKQKLNWKPRVAFDELVREMVHADVELMRTNPNA",336.8,1052.3,669.6,3459.8
"GSTP1_HUMAN (protein, UniProt P09211 2-210, looked up) Glutathione S-transferase P: PPYTVVYFPVRGRCAALRMLLADQGQSWKEEVVTVETWQEGSLKASCLYGQLPKFQDGDLTLYQSNTILRHLGRTLGLYGKDQQEAALVDMVNDGVEDLRCKYISLIYTNYEAGKDDYVKALPGQLKPFETLLSQNQGGKTFIVGDQISFADYNLLDLLLIHEVLAPGCLDAFPLLSAYVGRLSARPKLKAFLASPEYVNLPINGNGKQ",2925.0,7563.2,4071.6,9416.8
"HMGB2_HUMAN (protein, UniProt P26583 1-209, looked up) High mobility group protein B2: MGKGDPNKPRGKMSSYAFFVQTCREEHKKKHPDSSVNFAEFSKKCSERWKTMSAKEKSKFEDMAKSDKARYDREMKNYVPPKGDKKGKKKDPNAPKRPPSAFFLFCSEHRPKIKSEHPGLSIGDTAKKLGEMWSEQSAKDKQPYEQKAAKLKEKYEKDIAAYRAKGKSEAGKKGPGRPTGSKKKNEPEDEEEEEEEEDEDEEEEDEDEE",13849.4,11639.0,19129.2,10085.9
"GLU2B_HUMAN (protein, UniProt P14314 15-528, looked up) Glucosidase 2 subunit beta: VEVKRPRGVSLTNHHFYDESKPFTCLDGSATIPFDQVNDDYCDCKDGSDEPGTAACPNGSFHCTNTGYKPLYIPSNRVNDGVCDCCDGTDEYNSGVICENTCKEKGRKERESLQQMAEVTREGFRLKKILIEDWKKAREEKQKKLIELQAGKKSLEDQVEMLRTVKEEAEKPEREAKEQHQKLWEEQLAAAKAQQEQELAADAFKELDDDMDGTVSVTELQTHPELDTDGDGALSEAEAQALLSGDTQTDATSFYDRVWAAIRDKYRSEALPTDLPAPSAPDLTEPKEEQPPVPSSPTEEEEEEEEEEEEEAEEEEEEEDSEEAPPPLSPPQPASPAEEDKMPPYDEQTQAFIDAAQEARNKFEEAERSLKDMEESIRNLEQEISFDFGPNGEFAYLYSQCYELTTNEYVYRLCPFKLVSQKPKLGGSPTSLGTWGSWIGPDHDKFSAMKYEQGTGCWQGPNRSTTVRLLCGKETMVTSTTEPSRCEYLMELMTPAACPEPPPEAPTEDDHDEL",850.1,1573.2,828.0,1472.3
"ERO1A_HUMAN (protein, UniProt Q96HE7 24-468, looked up) ERO1-like protein alpha: EEQPPETAAQRCFCQVSGYLDDCTCDVETIDRFNNYRLFPRLQKLLESDYFRYYKVNLKRPCPFWNDISQCGRRDCAVKPCQSDEVPDGIKSASYKYSEEANNLIEECEQAERLGAVDESLSEETQKAVLQWTKHDDSSDNFCEADDIQSPEAEYVDLLLNPERYTGYKGPDAWKIWNVIYEENCFKPQTIKRPLNPLASGQGTSEENTFYSWLEGLCVEKRAFYRLISGLHASINVHLSARYLLQETWLEKKWGHNITEFQQRFDGILTEGEGPRRLKNLYFLYLIELRALSKVLPFFERPDFQLFTGNKIQDEENKMLLLEILHEIKSFPLHFDENSFFAGDKKEAHKLKEDFRLHFRNISRIMDCVGCFKCRLWGKLQTQGLGTALKILFSEKLIANMPESGPSYEFHLTRQEIVSLFNAFGRISTSVKELENFRNLLQNIH",58705.8,87660.3,50809.3,89111.5
"CYTA_HUMAN (protein, UniProt P01040 1-98, looked up) Cystatin-A: MIPGGLSEAKPATPEIQEIVDKVKPQLEEKTNETYGKLEAVQYKTQVVAGTNYYIKVRAGDNKYMHLKVFKSLPGQNEDLVLTGYQVDKNKDDELTGF",8213.5,14863.4,14851.3,20781.0
"CYTB_HUMAN (protein, UniProt P04080 1-98, looked up) Cystatin-B: MMCGAPSATQPATAETQHIADQVRSQLEEKENKKFPVFKAVSFKSQVVAGTNYFIKVHVGDEDFVHLRVFQSLPHENKPLTLSNYQTNKAKHDELTYF",402767.3,632435.7,350500.9,686593.2
"EF1A1_HUMAN (protein, UniProt P68104 2-462, looked up) Elongation factor 1-alpha 1: GKEKTHINIVVIGHVDSGKSTTTGHLIYKCGGIDKRTIEKFEKEAAEMGKGSFKYAWVLDKLKAERERGITIDISLWKFETSKYYVTIIDAPGHRDFIKNMITGTSQADCAVLIVAAGVGEFEAGISKNGQTREHALLAYTLGVKQLIVGVNKMDSTEPPYSQKRYEEIVKEVSTYIKKIGYNPDTVAFVPISGWNGDNMLEPSANMPWFKGWKVTRKDGNASGTTLLEALDCILPPTRPTDKPLRLPLQDVYKIGGIGTVPVGRVETGVLKPGMVVTFAPVNVTTEVKSVEMHHEALSEALPGDNVGFNVKNVSVKDVRRGNVAGDSKNDPPMEAAGFTAQVIILNHPGQISAGYAPVLDCHTAHIACKFAELKEKIDRRSGKKLEDGPKFLKSGDAAIVDMVPGKPMCVESFSDYPPLGRFAVRDMRQTVAVGVIKAVDKKAAGAGKVTKSAQKAQKAK",946.2,2257.5,873.0,2785.9
"DMKN_HUMAN (protein, UniProt Q6E0U4 22-476, looked up) Dermokine: GPLQSGEESTGTNIGEALGHGLGDALSEGVGKAIGKEAGGAAGSKVSEALGQGTREAVGTGVRQVPGFGVADALGNRVGEAAHALGNTGHEIGRQAEDVIRHGADAVRGSWQGVPGHNGAWETSGGHGIFGSQGGLGGQGQGNPGGLGTPWVHGYPGNSAGSFGMNPQGAPWGQGGNGGPPNFGTNTQGAVAQPGYGSVRASNQNEGCTNPPPSGSGGGSSNSGGGSGSQSGSSGSGSNGDNNNGSSSGGSSSGSSSGGSSGGSSGGSSGNSGGSRGDSGSESSWGSSTGSSSGNHGGSGGGNGHKPGCEKPGNEARGSGESGIQNSETSPGMFNFDTFWKNFKSKLGFINWDAINKNQVPPPSTRALLYFSRLWEDFKQNTPFLNWKAIIEGADASSLQKRAGRDDQNYNYNQHAYPTAYGGKYSVKTPAKGGVSPSSSASRVQPGLLQWVKFW",7330.6,7536.0,3281.4,7486.9
"COR1A_HUMAN (protein, UniProt P31146 2-461, looked up) Coronin-1A: SRQVVRSSKFRHVFGQPAKADQCYEDVRVSQTTWDSGFCAVNPKFVALICEASGGGAFLVLPLGKTGRVDKNAPTVCGHTAPVLDIAWCPHNDNVIASGSEDCTVMVWEIPDGGLMLPLREPVVTLEGHTKRVGIVAWHTTAQNVLLSAGCDNVIMVWDVGTGAAMLTLGPEVHPDTIYSVDWSRDGGLICTSCRDKRVRIIEPRKGTVVAEKDRPHEGTRPVRAVFVSEGKILTTGFSRMSERQVALWDTKHLEEPLSLQELDTSSGVLLPFFDPDTNIVYLCGKGDSSIRYFEITSEAPFLHYLSMFSSKESQRGMGYMPKRGLEVNKCEIARFYKLHERRCEPIAMTVPRKSDLFQEDLYPPTAGPDPALTAEEWLGGRDAGPLLISLKDGYVPPKSRELRVNRGLDTGRRRAAPEASGTPSSDAVSRLEEEMRKLQATVQELQKRLDRLEETVQAK",15288.9,19325.5,,16177.7
"ALDOA_HUMAN (protein, UniProt P04075 2-364, looked up) Fructose-bisphosphate …: PYQYPALTPEQKKELSDIAHRIVAPGKGILAADESTGSIAKRLQSIGTENTEENRRFYRQLLLTADDRVNPCIGGVILFHETLYQKADDGRPFPQVIKSKGGVVGIKVDKGVVPLAGTNGETTTQGLDGLSERCAQYKKDGADFAKWRCVLKIGEHTPSALAIMENANVLARYASICQQNGIVPIVEPEILPDGDHDLKRCQYVTEKVLAAVYKALSDHHIYLEGTLLKPNMVTPGHACTQKFSHEEIAMATVTALRRTVPPAVTGITFLSGGQSEEEASINLNAINKCPLLKPWALTFSYGRALQASALKAWGGKKENLKAAQEEYVKRALANSLACQGKYTPSGQAGAAASESLFVSNHAY",48319.3,73986.7,46120.0,95453.7
"ECM1_HUMAN (protein, UniProt Q16610 20-540, looked up) Extracellular matrix protein 1: ASEGGFTATGQRQLRPEHFQEVGYAAPPSPPLSRSLPMDHPDSSQHGPPFEGQSQVQPPPSQEATPLQQEKLLPAQLPAEKEVGPPLPQEAVPLQKELPSLQHPNEQKEGTPAPFGDQSHPEPESWNAAQHCQQDRSQGGWGHRLDGFPPGRPSPDNLNQICLPNRQHVVYGPWNLPQSSYSHLTRQGETLNFLEIGYSRCCHCRSHTNRLECAKLVWEEAMSRFCEAEFSVKTRPHWCCTRQGEARFSCFQEEAPQPHYQLRACPSHQPDISSGLELPFPPGVPTLDNIKNICHLRRFRSVPRNLPATDPLQRELLALIQLEREFQRCCRQGNNHTCTWKAWEDTLDKYCDREYAVKTHHHLCCRHPPSPTRDECFARRAPYPNYDRDILTIDIGRVTPNLMGHLCGNQRVLTKHKHIPGLIHNMTARCCDLPFPEQACCAEEEKLTFINDLCGPRRNIWRDPALCCYLSPGDEQVNCFNINYLRNVALVSGDTENAKGQGEQGSTGGTNISSTSEPKEE",13172.4,24637.4,11406.6,24555.1
